Test results published in patent publication US20160347807A1, “TARGETING P53 AND ITS DNA-BINDING DOMAIN” (UNIVERSITY OF UTAH RESEARCH DOUNDATION, priority 2014, published 2016).

Test system: 1471.1 cells
Test: Mitochondrial colocalization of EGFP constructs with MitoTracker Red (PCC)
Type: cell-based, murine
Conditions: PCC of 0.6 or greater defines colocalization

Substance	colocalization with mitochondria (Pearson's correlation coefficient, PCC)
p53-XL: full length p53 with EGFP on the amino terminus and the MTS from Bcl-XL (XL) on the C-terminus	directs p53-XL to the mitochondria
p53-BakMTS: MTS from Bak fused to the C-terminus of EGFP-p53	0.75
